Test results from the supplement of paper PMC10849652.
The other results are listed elsewhere or left out.

Amino acid sequences for entries named in this document (tags omitted). A change or cut given only in a name is not applied to a line headed by its entry.
UniProt Q9BZQ8: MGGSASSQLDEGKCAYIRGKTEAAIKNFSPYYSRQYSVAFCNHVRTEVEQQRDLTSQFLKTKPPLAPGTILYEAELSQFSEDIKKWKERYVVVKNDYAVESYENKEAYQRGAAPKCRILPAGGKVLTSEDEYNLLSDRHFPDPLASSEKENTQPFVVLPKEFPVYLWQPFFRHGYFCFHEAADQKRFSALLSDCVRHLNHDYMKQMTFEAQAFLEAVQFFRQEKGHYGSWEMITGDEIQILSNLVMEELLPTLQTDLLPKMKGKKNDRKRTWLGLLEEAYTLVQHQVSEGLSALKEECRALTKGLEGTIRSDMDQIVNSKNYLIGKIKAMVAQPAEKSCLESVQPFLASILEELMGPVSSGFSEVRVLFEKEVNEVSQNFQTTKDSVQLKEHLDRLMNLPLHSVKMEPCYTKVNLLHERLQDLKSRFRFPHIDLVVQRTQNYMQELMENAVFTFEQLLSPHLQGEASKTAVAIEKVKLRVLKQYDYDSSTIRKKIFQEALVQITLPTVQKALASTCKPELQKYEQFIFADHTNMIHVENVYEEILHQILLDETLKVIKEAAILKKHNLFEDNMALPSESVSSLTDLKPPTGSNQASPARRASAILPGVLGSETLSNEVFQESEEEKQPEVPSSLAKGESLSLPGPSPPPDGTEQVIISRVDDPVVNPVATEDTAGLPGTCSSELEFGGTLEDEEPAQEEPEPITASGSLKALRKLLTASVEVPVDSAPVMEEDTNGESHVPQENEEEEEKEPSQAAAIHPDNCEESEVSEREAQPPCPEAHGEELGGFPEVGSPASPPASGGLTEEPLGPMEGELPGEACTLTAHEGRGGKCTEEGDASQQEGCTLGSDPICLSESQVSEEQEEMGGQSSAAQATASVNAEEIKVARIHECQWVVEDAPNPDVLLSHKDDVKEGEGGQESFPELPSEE
UniProt Q9Y3C1: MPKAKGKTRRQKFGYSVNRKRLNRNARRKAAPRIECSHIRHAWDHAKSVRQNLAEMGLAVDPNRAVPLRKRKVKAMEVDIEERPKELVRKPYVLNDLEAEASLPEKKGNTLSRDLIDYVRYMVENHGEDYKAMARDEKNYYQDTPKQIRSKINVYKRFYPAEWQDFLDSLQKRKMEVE
UniProt P15559, whole entry, looked up: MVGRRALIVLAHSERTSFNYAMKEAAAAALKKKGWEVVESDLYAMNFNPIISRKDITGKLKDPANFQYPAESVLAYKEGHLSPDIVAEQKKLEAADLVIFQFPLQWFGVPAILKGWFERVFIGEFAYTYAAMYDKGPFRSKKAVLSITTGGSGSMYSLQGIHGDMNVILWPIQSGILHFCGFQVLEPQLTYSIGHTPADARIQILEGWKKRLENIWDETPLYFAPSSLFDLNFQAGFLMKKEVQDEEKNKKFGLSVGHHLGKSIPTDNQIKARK
UniProt P18615, whole entry, looked up: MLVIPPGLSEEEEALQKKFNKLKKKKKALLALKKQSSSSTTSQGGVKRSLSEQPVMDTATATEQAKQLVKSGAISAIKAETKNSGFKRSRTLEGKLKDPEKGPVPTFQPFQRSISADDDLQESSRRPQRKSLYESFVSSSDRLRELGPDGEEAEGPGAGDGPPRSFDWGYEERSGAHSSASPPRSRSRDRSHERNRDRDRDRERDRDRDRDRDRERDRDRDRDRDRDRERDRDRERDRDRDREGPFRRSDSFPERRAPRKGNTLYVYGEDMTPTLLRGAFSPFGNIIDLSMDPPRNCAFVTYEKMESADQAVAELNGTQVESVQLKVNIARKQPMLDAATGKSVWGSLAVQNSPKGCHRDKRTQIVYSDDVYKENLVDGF
UniProt P24468: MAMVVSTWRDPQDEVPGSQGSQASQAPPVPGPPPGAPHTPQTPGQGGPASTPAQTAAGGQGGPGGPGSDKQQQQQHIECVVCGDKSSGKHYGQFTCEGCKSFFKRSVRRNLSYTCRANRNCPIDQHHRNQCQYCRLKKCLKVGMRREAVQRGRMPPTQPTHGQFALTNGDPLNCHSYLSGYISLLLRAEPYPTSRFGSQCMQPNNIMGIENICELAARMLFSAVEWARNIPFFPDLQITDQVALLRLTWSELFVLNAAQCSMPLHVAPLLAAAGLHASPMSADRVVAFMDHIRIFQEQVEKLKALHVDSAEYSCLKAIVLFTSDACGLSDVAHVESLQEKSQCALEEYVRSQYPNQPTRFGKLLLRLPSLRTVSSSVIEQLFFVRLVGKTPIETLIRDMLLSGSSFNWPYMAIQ
UniProt Q12986: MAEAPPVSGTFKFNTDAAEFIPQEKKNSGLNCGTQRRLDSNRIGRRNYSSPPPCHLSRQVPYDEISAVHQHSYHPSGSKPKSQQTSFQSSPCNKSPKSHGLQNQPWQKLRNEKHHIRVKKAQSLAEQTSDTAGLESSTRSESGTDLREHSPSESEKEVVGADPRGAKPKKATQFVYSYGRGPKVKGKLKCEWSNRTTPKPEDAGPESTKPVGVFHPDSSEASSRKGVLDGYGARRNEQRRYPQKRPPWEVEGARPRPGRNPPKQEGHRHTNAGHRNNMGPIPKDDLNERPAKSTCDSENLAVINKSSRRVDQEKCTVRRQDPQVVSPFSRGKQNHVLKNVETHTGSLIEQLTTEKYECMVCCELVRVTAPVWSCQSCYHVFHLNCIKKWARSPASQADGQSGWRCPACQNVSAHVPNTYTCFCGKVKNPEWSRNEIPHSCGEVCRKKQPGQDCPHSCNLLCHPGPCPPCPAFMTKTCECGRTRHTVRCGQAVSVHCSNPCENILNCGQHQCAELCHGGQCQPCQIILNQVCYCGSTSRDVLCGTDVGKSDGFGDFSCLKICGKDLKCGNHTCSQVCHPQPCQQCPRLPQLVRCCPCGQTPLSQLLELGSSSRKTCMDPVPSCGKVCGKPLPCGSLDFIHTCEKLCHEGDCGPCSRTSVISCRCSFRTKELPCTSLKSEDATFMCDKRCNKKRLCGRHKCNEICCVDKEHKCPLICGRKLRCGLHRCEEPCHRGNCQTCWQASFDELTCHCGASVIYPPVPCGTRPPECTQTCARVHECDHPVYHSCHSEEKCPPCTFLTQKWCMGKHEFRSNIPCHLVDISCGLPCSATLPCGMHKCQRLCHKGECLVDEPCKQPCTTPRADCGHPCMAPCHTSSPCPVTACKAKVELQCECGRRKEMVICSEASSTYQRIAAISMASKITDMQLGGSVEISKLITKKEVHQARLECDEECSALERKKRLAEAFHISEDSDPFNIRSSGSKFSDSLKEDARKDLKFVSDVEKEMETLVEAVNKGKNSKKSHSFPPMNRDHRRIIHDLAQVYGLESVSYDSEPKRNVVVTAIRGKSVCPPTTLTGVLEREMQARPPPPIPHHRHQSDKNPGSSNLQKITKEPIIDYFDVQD
UniProt Q86WQ0: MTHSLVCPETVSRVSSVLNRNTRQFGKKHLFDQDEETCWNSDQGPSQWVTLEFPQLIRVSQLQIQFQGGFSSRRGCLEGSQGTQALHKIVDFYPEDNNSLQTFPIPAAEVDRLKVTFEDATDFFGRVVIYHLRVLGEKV
UniProt Q15233: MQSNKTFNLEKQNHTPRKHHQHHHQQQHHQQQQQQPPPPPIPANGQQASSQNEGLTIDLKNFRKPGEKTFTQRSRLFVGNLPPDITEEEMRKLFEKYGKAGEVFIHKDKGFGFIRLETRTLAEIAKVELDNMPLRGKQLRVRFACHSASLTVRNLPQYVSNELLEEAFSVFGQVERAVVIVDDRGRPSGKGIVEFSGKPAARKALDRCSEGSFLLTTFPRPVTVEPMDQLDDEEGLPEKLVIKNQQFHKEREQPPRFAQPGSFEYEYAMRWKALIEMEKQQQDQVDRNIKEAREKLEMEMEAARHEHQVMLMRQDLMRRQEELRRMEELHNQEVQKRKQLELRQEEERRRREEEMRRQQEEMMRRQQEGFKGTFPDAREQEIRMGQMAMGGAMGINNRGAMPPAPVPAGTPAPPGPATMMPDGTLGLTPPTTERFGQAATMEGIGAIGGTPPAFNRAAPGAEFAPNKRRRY
UniProt Q9Y2I1: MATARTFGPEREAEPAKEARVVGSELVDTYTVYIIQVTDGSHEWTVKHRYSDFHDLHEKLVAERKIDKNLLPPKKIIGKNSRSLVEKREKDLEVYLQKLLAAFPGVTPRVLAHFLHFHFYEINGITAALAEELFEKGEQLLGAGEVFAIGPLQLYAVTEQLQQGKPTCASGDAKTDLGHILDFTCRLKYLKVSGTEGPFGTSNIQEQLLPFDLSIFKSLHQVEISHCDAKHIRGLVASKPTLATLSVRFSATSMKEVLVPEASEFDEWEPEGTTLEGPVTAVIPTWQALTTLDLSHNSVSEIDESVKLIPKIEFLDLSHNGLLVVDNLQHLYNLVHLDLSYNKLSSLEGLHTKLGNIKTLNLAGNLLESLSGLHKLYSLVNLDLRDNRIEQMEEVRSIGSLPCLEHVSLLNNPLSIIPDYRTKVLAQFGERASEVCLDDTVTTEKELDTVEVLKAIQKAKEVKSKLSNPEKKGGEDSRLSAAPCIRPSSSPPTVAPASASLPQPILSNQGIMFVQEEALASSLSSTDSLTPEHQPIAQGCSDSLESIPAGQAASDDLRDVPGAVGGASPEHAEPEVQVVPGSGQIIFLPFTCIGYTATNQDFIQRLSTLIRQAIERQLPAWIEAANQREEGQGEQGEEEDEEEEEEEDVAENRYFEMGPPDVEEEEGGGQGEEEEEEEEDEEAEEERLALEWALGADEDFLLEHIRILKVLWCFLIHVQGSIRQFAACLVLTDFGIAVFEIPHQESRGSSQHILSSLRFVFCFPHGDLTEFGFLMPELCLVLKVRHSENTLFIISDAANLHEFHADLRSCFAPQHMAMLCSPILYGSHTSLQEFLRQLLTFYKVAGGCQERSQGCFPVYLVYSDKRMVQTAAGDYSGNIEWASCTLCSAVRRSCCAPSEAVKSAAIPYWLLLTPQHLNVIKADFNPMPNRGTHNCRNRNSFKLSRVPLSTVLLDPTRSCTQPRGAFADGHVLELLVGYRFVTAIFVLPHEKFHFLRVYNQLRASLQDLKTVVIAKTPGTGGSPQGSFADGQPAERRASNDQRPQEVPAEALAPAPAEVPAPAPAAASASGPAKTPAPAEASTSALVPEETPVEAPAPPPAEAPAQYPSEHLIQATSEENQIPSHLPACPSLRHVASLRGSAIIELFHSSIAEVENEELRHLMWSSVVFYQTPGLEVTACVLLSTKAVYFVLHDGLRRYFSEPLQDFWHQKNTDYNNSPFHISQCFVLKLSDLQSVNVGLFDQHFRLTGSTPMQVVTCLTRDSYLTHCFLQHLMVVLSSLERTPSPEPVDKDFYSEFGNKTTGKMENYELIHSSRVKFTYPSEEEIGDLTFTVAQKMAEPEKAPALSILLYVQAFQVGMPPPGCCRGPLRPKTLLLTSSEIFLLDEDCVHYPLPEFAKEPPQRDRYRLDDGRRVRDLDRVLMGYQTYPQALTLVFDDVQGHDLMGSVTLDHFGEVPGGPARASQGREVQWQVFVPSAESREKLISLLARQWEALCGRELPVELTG
UniProt Q9UMS0: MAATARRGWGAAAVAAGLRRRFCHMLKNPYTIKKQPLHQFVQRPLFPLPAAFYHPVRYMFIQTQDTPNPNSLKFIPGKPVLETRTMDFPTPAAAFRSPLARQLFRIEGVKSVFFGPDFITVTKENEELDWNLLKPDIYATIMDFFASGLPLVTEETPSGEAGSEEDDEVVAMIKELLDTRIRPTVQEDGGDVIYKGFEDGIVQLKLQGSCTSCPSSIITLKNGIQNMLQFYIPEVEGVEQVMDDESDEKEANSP
UniProt Q9UHY1: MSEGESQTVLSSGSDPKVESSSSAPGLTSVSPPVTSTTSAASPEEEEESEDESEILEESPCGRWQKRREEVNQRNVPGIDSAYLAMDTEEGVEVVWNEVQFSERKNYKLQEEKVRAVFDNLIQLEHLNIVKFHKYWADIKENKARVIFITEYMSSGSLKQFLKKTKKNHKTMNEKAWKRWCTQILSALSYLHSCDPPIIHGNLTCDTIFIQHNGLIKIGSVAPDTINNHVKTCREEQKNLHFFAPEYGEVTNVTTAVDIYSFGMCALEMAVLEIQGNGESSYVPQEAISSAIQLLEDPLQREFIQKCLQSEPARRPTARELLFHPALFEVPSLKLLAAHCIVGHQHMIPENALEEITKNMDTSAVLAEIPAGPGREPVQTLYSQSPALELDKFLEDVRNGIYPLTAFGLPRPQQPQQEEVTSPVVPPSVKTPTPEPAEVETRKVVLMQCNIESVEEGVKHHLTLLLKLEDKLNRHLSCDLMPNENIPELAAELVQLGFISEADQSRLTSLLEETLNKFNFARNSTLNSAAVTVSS

Experiments:
Assay in all cases: log2 fold change, soluble protein after heating vs DMSO (PISA); higher = thermal stabilisation; K562 cells, 10 uM, 30 min; active = over 0.2 and 3.5 SD of the protein, either way, in both replicates (recomputed)
[1] = compound: CC1=C(C=C(C=C1)NC(=O)C2=CC(=CC=C2)C(C)(C)C#N)NC3=CC4=C(C=C3)N=CN(C4=O)C
Method in brief: (§1)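 Soluble protein was quantified by TMTpro 16plex LC-MS/MS after channel sums were equalised. It was obtained as the supernatant after 21,000xg for 90 min from pooled aliquots of K562 cells (2×10^6 cells/mL, 10 μM compound, 30 min) heated for 3 min across 48°C-58°C and extracted in PBS with 0.5% NP-40 at 4°C. Thermal stability values are relative to control samples and come from duplicates. They are given as log2 fold changes.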

[2] = compound: CC1=C(C=C(C=C1)NC(=O)C2=CC(=CC=C2)N(C)C)NC(=O)C3=CC=C(C=C3)O
Method in brief: as §1

[3] = compound: CC1=CC=C(C=C1)SC2=C3C=C(SC3=CN=C2)C(=O)N
Method in brief: as §1

[4] = compound: CC1=NC(=CC=C1)C2=C(N=C(N2)C(C)(C)C)C3=CC4=NC=CN=C4C=C3
Method in brief: as §1

[5] = compound: CCCCN(Cc1ccc(C(=O)NO)cc1)C(=O)Nc1ccccc1 [Nexturastat A]
Method in brief: as §1

[6] = compound: CCCS(=O)(=O)Nc1ccc(F)c(C(=O)c2c[nH]c3ncc(-c4ccc(Cl)cc4)cc23)c1F [vemurafenib]
Method in brief: as §1

[7] = compound: CCCS(=O)(=O)Nc1ccc(F)c(C(=O)c2c[nH]c3ncc(Cl)cc23)c1F
Method in brief: as §1

[8] = compound: CCCc1cc(C)[nH]c(=O)c1CNC(=O)c1cc(-c2ccnc(N3CCN(C)CC3)c2)cc2c1cnn2C(C)C
Method in brief: as §1

[9] = compound: CCN(CC)Cc1ccc2cc(COC(=O)Nc3ccc(C(=O)NO)cc3)ccc2c1 [givinostat]
Method in brief: as §1

[10] = compound: CCN(CCCOc1ccc2c(Nc3cc(CC(=O)Nc4cccc(F)c4)[nH]n3)ncnc2c1)CCOP(=O)(O)O [barasertib]
Method in brief: as §1

[11] = compound: CC[C@@H]1C(=O)N(C)c2cnc(Nc3ccc(C(=O)NC4CCN(C)CC4)cc3OC)nc2N1C1CCCC1
Method in brief: as §1

[12] = compound: CC[C@@H]1C(=O)N(C)c2cnc(Nc3ccc(C(=O)N[C@H]4CC[C@H](N5CCN(CC6CC6)CC5)CC4)cc3OC)nc2N1C(C)C [volasertib]
Method in brief: as §1

[13] = compound: CC[C@H](C)N1C=C(C2=C(C=C(C=C21)C3=CN=C(C=C3)N4CCNCC4)C(=O)NCC5=C(C=C(NC5=O)C)C)C
Method in brief: as §1

[14] = compound: CC[C@H](C)[C@@H](C(=O)N[C@@H]([C@@H](C)O)C(=O)N[C@@H](CC(C)C)C(=O)[C@]1(CO1)C)NC(=O)[C@H]([C@@H](C)CC)N(C)C(=O)C [epoxomicin]
Method in brief: as §1

[15] = compound: CCn1c(C(=O)N(C2CC2)C2CC2)cc2c3c(ncn3C)c(Nc3cc(C)n(C)n3)nc21
Method in brief: as §1

[16] = compound: CCn1cc(-c2ccnc3[nH]c(-c4cccc(CN(C)C)c4)cc23)c(-c2ccc(NC(=O)N(C)C)cc2)n1
Method in brief: as §1

[17] = compound: CN(C)CC(=O)Nc1ccc2[nH]c(=O)c3ccccc3c2c1
Method in brief: as §1

[18] = compound: CN(CCOC1=CC=C(C=C1)C[C@H]2C(=O)NC(=O)S2)C3=CC=CC=N3 (racemic) [rosiglitazone]
Method in brief: as §1

[19] = compound: CN1C2=C(C3=C1C(=O)N(N=C3)CC4=CC(=CC=C4)N)SC(=C2)S(=O)C
Method in brief: as §1

[20] = compound: CN1CCC(CNc2ccc3ncc(-c4cccc(OC(F)(F)F)c4)n3n2)CC1
Method in brief: as §1

Measured: log2 fold change

NOA1 (UniProt Q8NC60)
inactive: [1] 0.011 | [2] -0.057 | [3] -0.025 | [4] -0.054 | [5] 0.199 | [6] -0.026 | [7] 0.006 | [8] 0.073 | [9] 0.086 | [10] -0.031 | [11] 0 | [12] -0.003 | [13] 0.022 | [14] -0.062 | [15] -0.083 | [16] 0.006 | [17] 0.03 | [18] 0.073 | [19] 0.003 | [20] -0.075

NEMP1 (UniProt O14524)
inactive: [1] -0.051 | [2] 0.037 | [3] 0.031 | [4] -0.022 | [5] -0.057 | [6] -0.084 | [7] -0.041 | [8] -0.001 | [9] -0.061 | [10] -0.034 | [11] 0.007 | [12] -0.128 | [13] -0.023 | [14] 0.015 | [16] 0.018 | [17] -0.003 | [19] 0.01 | [20] -0.106

NIBAN1 (UniProt Q9BZQ8)
active: [12] -0.428
inactive: [1] 0.05 | [2] -0.036 | [3] 0.102 | [4] 0.01 | [5] 0.077 | [6] 0.046 | [7] 0.083 | [8] 0.039 | [9] 0.05 | [10] 0.063 | [11] -0.16 | [13] 0.073 | [14] 0.066 | [16] -0.085 | [17] 0.022 | [19] 0.04 | [20] -0.208

NOP16 (UniProt Q9Y3C1)
inactive: [1] -0.143 | [2] 0.013 | [3] -0.085 | [4] -0.061 | [5] 0.259 | [6] -0.15 | [7] -0.086 | [8] 0.12 | [9] -0.024 | [10] -0.085 | [11] 0.176 | [12] 0.462 | [13] -0.033 | [14] -0.238 | [15] -0.058 | [16] 0.296 | [17] -0.187 | [18] -0.139 | [19] 0.323 | [20] 0.176

NQO1 (UniProt P15559)
inactive: [1] 0.075 | [2] -0.023 | [3] 0.032 | [4] 0.025 | [5] -0.049 | [6] 0.027 | [7] -0.007 | [8] 0.039 | [9] -0.01 | [10] 0.036 | [11] 0.011 | [12] 0.057 | [14] 0.083 | [16] -0.064 | [17] -0.005 | [20] 0.046
active: [13] 0.276 | [19] 0.356

Random excerpt: 2 records from the list.
NQO1 (UniProt P15559)
inactive: [1] 0.075 | [2] -0.023 | [3] 0.032 | [4] 0.025 | [5] -0.049 | [6] 0.027 | [7] -0.007 | [8] 0.039 | [9] -0.01 | [10] 0.036 | [11] 0.011 | [12] 0.057 | [14] 0.083 | [16] -0.064 | [17] -0.005 | [20] 0.046
active: [13] 0.276 | [19] 0.356

NOA1 (UniProt Q8NC60)
inactive: [1] 0.011 | [2] -0.057 | [3] -0.025 | [4] -0.054 | [5] 0.199 | [6] -0.026 | [7] 0.006 | [8] 0.073 | [9] 0.086 | [10] -0.031 | [11] 0 | [12] -0.003 | [13] 0.022 | [14] -0.062 | [15] -0.083 | [16] 0.006 | [17] 0.03 | [18] 0.073 | [19] 0.003 | [20] -0.075

Next part:

NR2C2 isoform 2 (UniProt P49116)
active: [5] -0.23
inactive: [1] -0.017 | [2] 0.029 | [3] 0.114 | [4] -0.034 | [6] -0.023 | [7] 0.03 | [8] 0.04 | [9] -0.073 | [10] 0.028 | [11] 0.051 | [12] -0.102 | [13] 0.055 | [14] 0.036 | [16] 0.049 | [17] -0.069 | [19] 0.036 | [20] 0.046

NRBF2 (UniProt Q96F24)
inactive: [1] -0.017 | [2] -0.014 | [3] 0.032 | [4] 0.016 | [5] -0.046 | [6] -0.024 | [7] 0.042 | [8] -0.046 | [9] -0.009 | [10] 0.071 | [11] 0.012 | [12] -0.08 | [13] 0.045 | [14] 0.016 | [15] 0.019 | [16] -0.033 | [17] 0.015 | [18] -0.009 | [19] -0.008 | [20] 0.005

NELFE isoform 3 (UniProt P18615)
inactive: [1] 0.006 | [2] 0.024 | [3] -0.02 | [4] 0.03 | [5] -0.059 | [6] 0.079 | [7] 0.005 | [8] -0.001 | [9] 0.018 | [10] 0.05 | [11] -0.054 | [12] -0.148 | [13] 0.013 | [14] -0.003 | [15] -0.019 | [16] 0.092 | [17] 0.034 | [18] -0.01 | [19] 0.035 | [20] -0.044

NR2F2 (UniProt P24468)
inactive: [1] -0.017 | [2] -0.025 | [3] -0.003 | [4] 0.065 | [5] -0.083 | [6] -0.031 | [7] -0.019 | [8] 0 | [9] -0.018 | [10] 0.105 | [11] 0.088 | [12] -0.1 | [13] 0.014 | [14] 0.136 | [15] 0.032 | [16] -0.012 | [17] 0.006 | [18] 0.052 | [19] 0.013 | [20] 0.071

NFX1 (UniProt Q12986)
inactive: [1] -0.113 | [2] 0.051 | [3] -0.082 | [4] 0.004 | [5] 0.287 | [6] 0.148 | [7] -0.032 | [8] 0.17 | [9] 0 | [10] -0.125 | [11] 0.029 | [12] 0.15 | [13] -0.001 | [14] -0.144 | [16] 0.232 | [17] -0.216 | [19] 0.128 | [20] 0.197

NR2C2AP isoform 2 (UniProt Q86WQ0)
inactive: [1] -0.053 | [2] -0.068 | [3] -0.007 | [4] 0.082 | [5] -0.101 | [6] -0.026 | [7] 0.066 | [8] -0.085 | [9] -0.035 | [10] -0.002 | [11] -0.108 | [12] -0.061 | [13] -0.018 | [14] 0.023 | [16] 0.018 | [17] 0 | [19] -0.223 | [20] -0.152

NONO (UniProt Q15233)
inactive: [1] 0.026 | [2] -0.01 | [3] -0.056 | [4] -0.05 | [5] 0.347 | [6] 0.057 | [7] 0.073 | [8] 0.085 | [9] 0.236 | [10] -0.099 | [11] -0.022 | [12] -0.224 | [13] 0.166 | [14] -0.075 | [15] -0.138 | [16] 0.015 | [17] 0.054 | [18] -0.018 | [19] 0.284 | [20] 0.06

NISCH (UniProt Q9Y2I1)
active: [12] -0.487 | [20] -0.518
inactive: [1] 0.009 | [2] -0.07 | [3] -0.054 | [4] -0.018 | [5] 0.094 | [6] 0.055 | [7] 0.116 | [8] -0.077 | [9] 0.032 | [10] 0.075 | [11] -0.349 | [13] 0.025 | [14] 0.05 | [16] -0.121 | [17] 0.02 | [19] 0.086

NFU1 (UniProt Q9UMS0)
inactive: [1] 0.001 | [2] 0.002 | [3] 0.046 | [4] 0.013 | [5] -0.042 | [6] 0.054 | [7] -0.022 | [8] -0.018 | [9] -0.022 | [10] 0.02 | [11] -0.101 | [12] 0.013 | [13] 0.011 | [14] 0.039 | [15] 0 | [16] -0.048 | [17] 0.03 | [18] -0.003 | [19] -0.045 | [20] 0.038

NLRC3 isoform 2 (UniProt Q7RTR2)
inactive: [1] -0.334 | [2] 0.021 | [3] -0.197 | [4] -0.33 | [5] -0.066 | [6] -0.287 | [7] -0.436 | [8] -0.384 | [9] -0.065 | [10] 0.092 | [11] 0.133 | [12] 0.064 | [13] -0.222 | [14] -0.176 | [15] -0.025 | [17] -0.161 | [18] 0.13 | [19] -0.204

NGLY1 (UniProt Q96IV0)
active: [12] -0.367
inactive: [1] -0.034 | [2] -0.039 | [3] 0.052 | [4] -0.016 | [5] 0.102 | [6] 0.009 | [7] 0.026 | [8] 0.016 | [9] 0.036 | [10] 0.024 | [11] -0.07 | [13] 0.04 | [14] -0.071 | [16] -0.03 | [17] 0.055 | [19] 0.044 | [20] -0.116

NRBP1 (UniProt Q9UHY1)
inactive: [1] 0.02 | [2] 0.035 | [3] -0.008 | [4] 0.022 | [5] -0.022 | [6] 0.057 | [7] -0.014 | [8] -0.02 | [9] 0.053 | [10] 0.025 | [11] -0.03 | [12] -0.053 | [13] 0.054 | [14] 0.019 | [15] -0.05 | [16] -0.064 | [17] 0.018 | [18] 0.025 | [19] -0.003 | [20] 0.015
